In assay [1] the target is T1, Flag-EPN3 (full-length human Epsin 3 overexpressed in MCF10A cells) (human) (UniProt Q9H201).
T1 sequence: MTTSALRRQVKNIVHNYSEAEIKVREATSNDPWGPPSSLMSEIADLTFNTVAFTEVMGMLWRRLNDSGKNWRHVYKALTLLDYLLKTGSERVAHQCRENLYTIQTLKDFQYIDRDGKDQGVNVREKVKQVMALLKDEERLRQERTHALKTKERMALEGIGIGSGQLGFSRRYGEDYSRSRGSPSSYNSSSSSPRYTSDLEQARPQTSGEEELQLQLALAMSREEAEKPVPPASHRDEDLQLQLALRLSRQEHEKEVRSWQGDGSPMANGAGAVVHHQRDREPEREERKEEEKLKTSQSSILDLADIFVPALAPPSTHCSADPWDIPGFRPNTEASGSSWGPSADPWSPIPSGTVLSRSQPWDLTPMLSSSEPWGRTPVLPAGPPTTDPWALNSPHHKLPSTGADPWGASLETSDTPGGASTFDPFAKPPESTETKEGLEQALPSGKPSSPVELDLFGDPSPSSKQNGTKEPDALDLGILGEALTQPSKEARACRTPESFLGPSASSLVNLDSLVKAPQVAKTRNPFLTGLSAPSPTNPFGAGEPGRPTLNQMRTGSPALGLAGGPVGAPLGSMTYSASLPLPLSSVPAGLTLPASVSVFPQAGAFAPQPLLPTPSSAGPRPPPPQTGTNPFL
In words: co-IP; MCF10A-Ctr and MCF10A-EPN3 cells, EGF starved overnight, cross-linked with 1% formaldehyde for 10 min at RT, lysed in RIPA buffer and sonicated; 1 mg lysate, IP with anti-EPN3 rabbit polyclonal Ab (or control IgG) and Protein G, 4 washes in RIPA; immunoblot of partners. (In general: Immunoblotting shows a protein as a band on a membrane.)

Sequences of proteins named here, by UniProt entry; tags and fusion partners are left off.
UniProt P35222: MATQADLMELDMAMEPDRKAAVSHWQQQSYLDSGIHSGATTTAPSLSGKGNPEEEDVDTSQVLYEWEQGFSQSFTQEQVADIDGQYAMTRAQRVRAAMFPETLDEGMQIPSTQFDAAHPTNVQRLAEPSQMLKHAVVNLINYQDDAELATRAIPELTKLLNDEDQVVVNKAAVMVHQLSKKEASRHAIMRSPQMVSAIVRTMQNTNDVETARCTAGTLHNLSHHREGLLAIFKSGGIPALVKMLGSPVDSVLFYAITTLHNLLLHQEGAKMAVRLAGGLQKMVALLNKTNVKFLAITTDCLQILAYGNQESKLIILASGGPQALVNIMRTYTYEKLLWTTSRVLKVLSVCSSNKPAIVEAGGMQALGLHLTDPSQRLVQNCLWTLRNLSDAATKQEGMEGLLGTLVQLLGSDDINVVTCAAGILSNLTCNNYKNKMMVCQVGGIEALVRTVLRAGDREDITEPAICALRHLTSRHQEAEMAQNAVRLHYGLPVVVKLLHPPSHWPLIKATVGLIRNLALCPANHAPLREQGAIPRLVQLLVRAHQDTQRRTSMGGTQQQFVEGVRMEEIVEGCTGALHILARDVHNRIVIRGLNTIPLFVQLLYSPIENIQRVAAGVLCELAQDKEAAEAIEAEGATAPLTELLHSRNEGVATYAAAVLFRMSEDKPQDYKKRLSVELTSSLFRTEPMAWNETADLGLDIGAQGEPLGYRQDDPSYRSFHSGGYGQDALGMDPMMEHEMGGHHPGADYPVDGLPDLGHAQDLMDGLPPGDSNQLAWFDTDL

For assay [2], the target named is T2, Epsin 3 (EPN3), endogenous in MCF10A-Ctr cells (human (endogenous in MCF10A)) (UniProt Q9H201).
T2 sequence: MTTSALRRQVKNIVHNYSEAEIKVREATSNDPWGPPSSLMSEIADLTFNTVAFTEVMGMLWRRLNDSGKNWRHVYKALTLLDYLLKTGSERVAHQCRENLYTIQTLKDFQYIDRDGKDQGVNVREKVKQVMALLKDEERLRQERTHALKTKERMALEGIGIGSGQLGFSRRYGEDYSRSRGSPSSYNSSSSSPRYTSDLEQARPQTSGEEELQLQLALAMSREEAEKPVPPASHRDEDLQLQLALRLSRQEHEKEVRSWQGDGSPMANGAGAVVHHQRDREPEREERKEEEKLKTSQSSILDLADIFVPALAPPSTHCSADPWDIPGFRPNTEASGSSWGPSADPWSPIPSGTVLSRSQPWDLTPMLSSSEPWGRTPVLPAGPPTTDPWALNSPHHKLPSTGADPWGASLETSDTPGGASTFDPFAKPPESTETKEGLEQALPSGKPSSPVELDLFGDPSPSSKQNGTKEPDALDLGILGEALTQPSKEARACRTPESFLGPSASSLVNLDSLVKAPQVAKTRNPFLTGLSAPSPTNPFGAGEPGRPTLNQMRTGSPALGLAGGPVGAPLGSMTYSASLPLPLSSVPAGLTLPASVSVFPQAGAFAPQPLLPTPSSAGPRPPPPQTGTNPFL
The description is as above.

Results are given in words; binding and its absence hold for the method and conditions named. In cells and extracts the contact can be indirect. Some binding calls cover weakened binding; strength is not graded here. For some of these results: Where a sequence is shown, tags or fusion partners need not be part of it.

Data on two molecules can be found in article PMC7296024.

β-catenin (from UniProt P35222 1-781): the binding entry in assay [1] and in assay [2] was “binds” each time.

B1: p120-catenin (protein, UniProt O60716 1-968)
chain: MDDSEVESTASILASVKEQEAQFEKLTRALEEERRHVSAQLERVRVSPQDANPLMANGTLTRRHQNGRFVGDADLERQKFSDLKLNGPQDHSHLLYSTIPRMQEPGQIVETYTEEDPEGAMSVVSVETSDDGTTRRTETTVKKVVKTVTTRTVQPVAMGPDGLPVDASSVSNNYIQTLGRDFRKNGNGGPGPYVGQAGTATLPRNFHYPPDGYSRHYEDGYPGGSDNYGSLSRVTRIEERYRPSMEGYRAPSRQDVYGPQPQVRVGGSSVDLHRFHPEPYGLEDDQRSMGYDDLDYGMMSDYGTARRTGTPSDPRRRLRSYEDMIGEEVPSDQYYWAPLAQHERGSLASLDSLRKGGPPPPNWRQPELPEVIAMLGFRLDAVKSNAAAYLQHLCYRNDKVKTDVRKLKGIPVLVGLLDHPKKEVHLGACGALKNISFGRDQDNKIAIKNCDGVPALVRLLRKARDMDLTEVITGTLWNLSSHDSIKMEIVDHALHALTDEVIIPHSGWEREPNEDCKPRHIEWESVLTNTAGCLRNVSSERSEARRKLRECDGLVDALIFIVQAEIGQKDSDSKLVENCVCLLRNLSYQVHREIPQAERYQEAAPNVANNTGPHAASCFGAKKGKDEWFSRGKKPIEDPANDTVDFPKRTSPARGYELLFQPEVVRIYISLLKESKTPAILEASAGAIQNLCAGRWTYGRYIRSALRQEKALSAIADLLTNEHERVVKAASGALRNLAVDARNKELIGKHAIPNLVKNLPGGQQNSSWNFSEDTVISILNTINEVIAENLEAAKKLRETQGIEKLVLINKSGNRSEKEVRAAALVLQTIWGYKELRKPLEKEGWKKSDFQVNLNNASRSQSSHSYDDSTLPLIDRNQKSDKKPDREEIQMSNMGSNTKSLDNNYSTPNERGDHNRTLDRSGDLGDMEPLKGTTPLMQDEGQESLEEELDVLVLDDEGGQVSYPSMQKI
Take B1: the binding entry in assay [1] and in assay [2] was “binds” in each case.
